Reference: PubChem BioAssay AID1508597 (Cure First, 2020)
Shown is a random part of the about 2,100 reagents, in one setting of the screen. 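Calls flag viability under 80% in either arm, not effects specific to rucaparib; the reference for percent is not stated.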 Some reagents were tested in more than one well and are listed for each. Not given: the 100% reference.

- Assay: 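Knock-downs altering ovarian cancer cell survival with or without PARP inhibitor rucaparib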 (primary screen)
- Cells: human ovarian carcinoma lines grown from tumours: OCI-P5x (papillary serous) and OCI-C5x (clear cell)
- Reagent: siRNA pool against human genes, 1.25 pmol siRNA per well
- Duration: 72 h or 96 h, depending on the cell culture
- Conditions: rucaparib 20 µM (about IC30) or vehicle, present until read-out
- Rucaparib or vehicle: Vehicle
- Cell line: OCI-C5x (clear cell)
- Measured: 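Luminescent ATP-based viability assay read 72 or 96 h after transfection, depending on culture, given as normalised percent viability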
- Reading the numbers: viability, normalised: higher = more viable cells remaining
- Rule for the call: 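Active when normalised viability falls below 80 percent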
- Calls: active = viability under 80%; inactive = viability 80% or more

TRIM33 (tripartite motif containing 33), technical replicate 1
- viability, normalised (%): 43.1
- Call: active

TRIM33 (tripartite motif containing 33), technical replicate 1
- viability, normalised (%): 51.7
- Call: active

TRIM33 (tripartite motif containing 33), technical replicate 2
- viability, normalised (%): 54.4
- Call: active

TRIM33 (tripartite motif containing 33), technical replicate 2
- viability, normalised (%): 67.1
- Call: active

TRIM33 (tripartite motif containing 33), technical replicate 3
- viability, normalised (%): 44.3
- Call: active

TRIM33 (tripartite motif containing 33), technical replicate 3
- viability, normalised (%): 54.5
- Call: active

HAUS7 (HAUS augmin like complex subunit 7), technical replicate 1
- viability, normalised (%): 50.7
- Call: active

HAUS7 (HAUS augmin like complex subunit 7), technical replicate 2
- viability, normalised (%): 48.9
- Call: active

HAUS7 (HAUS augmin like complex subunit 7), technical replicate 3
- viability, normalised (%): 54.8
- Call: active

PHF14 (PHD finger protein 14), technical replicate 1
- viability, normalised (%): 35.5
- Call: active

PHF14 (PHD finger protein 14), technical replicate 2
- viability, normalised (%): 30.7
- Call: active

PHF14 (PHD finger protein 14), technical replicate 3
- viability, normalised (%): 33.4
- Call: active

UBE2I (ubiquitin conjugating enzyme E2 I), technical replicate 1
- viability, normalised (%): 48.2
- Call: active

UBE2I (ubiquitin conjugating enzyme E2 I), technical replicate 1
- viability, normalised (%): 42.1
- Call: active

UBE2I (ubiquitin conjugating enzyme E2 I), technical replicate 2
- viability, normalised (%): 45.2
- Call: active

UBE2I (ubiquitin conjugating enzyme E2 I), technical replicate 2
- viability, normalised (%): 42.2
- Call: active

UBE2I (ubiquitin conjugating enzyme E2 I), technical replicate 3
- viability, normalised (%): 45.8
- Call: active

UBE2I (ubiquitin conjugating enzyme E2 I), technical replicate 3
- viability, normalised (%): 50.9
- Call: active

TREX1 (three prime repair exonuclease 1), technical replicate 1
- viability, normalised (%): 43.9
- Call: active

TREX1 (three prime repair exonuclease 1), technical replicate 2
- viability, normalised (%): 40.6
- Call: active

TREX1 (three prime repair exonuclease 1), technical replicate 3
- viability, normalised (%): 43.4
- Call: active

Reprinted from the entries so far (3 entries):
UBE2I (ubiquitin conjugating enzyme E2 I), technical replicate 3
- viability, normalised (%): 50.9
- Call: active

TREX1 (three prime repair exonuclease 1), technical replicate 1
- viability, normalised (%): 43.9
- Call: active

TREX1 (three prime repair exonuclease 1), technical replicate 2
- viability, normalised (%): 40.6
- Call: active
